For at least one compound, name, drawing or mass did not settle the structure.
Test: Incubation under esterification conditions (glycerol on silica gel, 3 days), LC-MS
Assay type: physicochemical
Conditions: free acid in ether with glycerol-coated silica gel
Method: • A: 10 mM NH4OAc, pH 7.4 • B: Acetonitrile+0.1% formic acid • 0-1.50 min: 5% B • 1.50-2 min: 5-90% B • 2-10 min: 90% B • 10.01-15 min: 5% B • DAD1 254 nm • DAD2 215 nm • Agilent Zorbax XDB-C18 5 μm C18 50×2.0 mm • 0.4 ml/min MS Parameters: Agilent 6120 with Electrospray Ionization • Drying gas flow: 11.0 L/min • Nebulizer pressure: 40 psig • Drying gas temperature: 350 C • Positive capillary voltage: 4000 V • Negative capillary voltage: 3000 V
Approximately 30 mg of silica gel was added to 25 mg of glycerol, and it was then vortexed to coat all of the silica with glycerol, until the admixture was free-flowing. Between 5-10 mg of this material was added to a solution of the free acid in ether, and it was vortexed briefly. The reaction was left for 3 days, then filtered and evaporated under nitrogen. The residue was redissolved in ethanol and analyzed by LC-MS, in both positive and negative modes.

In the case of `CCCCCC(O)/C=C/C(O)C(O)CCCCCCC(C)(C)C(=O)O` (stereo not shown) [2,2-dimethyl-13,9,10 triol, 2,2-dimethyl-9,10,13-trihydroxy-octadecenoate], the esterification with glycerol is reported as “resistant to esterification”.

Reference: patent publication US12479812B2, “Fatty acid derivatives and their use” (THE UNITED STATES OF AMERICA, as represented by the …, priority 2017, dated 2025)
